The values below come from publication PMC9985596.

The chains behind the UniProt entries cited, without tags or fusion partners. Residues count along the entry.
UniProt Q9NYG5: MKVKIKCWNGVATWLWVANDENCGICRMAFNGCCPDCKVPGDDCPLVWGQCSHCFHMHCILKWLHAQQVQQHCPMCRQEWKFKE
UniProt P53396: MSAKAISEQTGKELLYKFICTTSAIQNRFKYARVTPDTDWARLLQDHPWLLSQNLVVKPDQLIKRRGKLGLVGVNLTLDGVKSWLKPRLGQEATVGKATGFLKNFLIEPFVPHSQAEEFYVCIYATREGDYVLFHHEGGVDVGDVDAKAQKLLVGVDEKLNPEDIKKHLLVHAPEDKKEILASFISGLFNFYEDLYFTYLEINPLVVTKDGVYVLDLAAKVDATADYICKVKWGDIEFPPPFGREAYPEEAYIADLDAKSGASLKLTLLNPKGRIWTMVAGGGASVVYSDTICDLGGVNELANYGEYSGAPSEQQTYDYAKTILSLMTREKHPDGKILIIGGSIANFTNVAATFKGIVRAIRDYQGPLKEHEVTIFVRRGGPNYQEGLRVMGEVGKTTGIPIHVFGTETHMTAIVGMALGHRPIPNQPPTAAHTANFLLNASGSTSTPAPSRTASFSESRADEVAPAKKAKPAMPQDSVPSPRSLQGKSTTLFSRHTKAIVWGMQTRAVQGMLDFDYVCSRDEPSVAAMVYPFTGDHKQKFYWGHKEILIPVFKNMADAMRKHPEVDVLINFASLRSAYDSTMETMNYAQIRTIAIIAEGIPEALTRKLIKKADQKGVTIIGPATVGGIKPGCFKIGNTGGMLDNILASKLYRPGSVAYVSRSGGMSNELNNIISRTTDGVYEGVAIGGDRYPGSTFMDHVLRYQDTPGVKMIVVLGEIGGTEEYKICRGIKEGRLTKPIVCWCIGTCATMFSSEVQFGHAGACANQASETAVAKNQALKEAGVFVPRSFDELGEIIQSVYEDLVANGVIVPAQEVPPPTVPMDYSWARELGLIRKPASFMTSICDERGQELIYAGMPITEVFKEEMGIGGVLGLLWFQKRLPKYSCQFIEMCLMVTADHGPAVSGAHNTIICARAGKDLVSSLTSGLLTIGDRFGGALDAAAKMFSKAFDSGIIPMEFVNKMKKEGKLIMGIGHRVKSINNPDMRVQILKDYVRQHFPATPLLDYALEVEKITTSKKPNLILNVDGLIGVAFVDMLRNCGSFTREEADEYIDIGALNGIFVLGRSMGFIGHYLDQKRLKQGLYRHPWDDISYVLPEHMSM
UniProt Q9BRT9: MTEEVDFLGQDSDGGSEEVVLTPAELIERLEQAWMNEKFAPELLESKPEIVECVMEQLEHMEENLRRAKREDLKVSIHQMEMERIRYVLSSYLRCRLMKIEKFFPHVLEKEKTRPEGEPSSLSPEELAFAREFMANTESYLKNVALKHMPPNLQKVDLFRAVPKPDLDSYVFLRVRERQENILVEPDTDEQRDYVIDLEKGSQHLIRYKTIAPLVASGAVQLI
UniProt O43684: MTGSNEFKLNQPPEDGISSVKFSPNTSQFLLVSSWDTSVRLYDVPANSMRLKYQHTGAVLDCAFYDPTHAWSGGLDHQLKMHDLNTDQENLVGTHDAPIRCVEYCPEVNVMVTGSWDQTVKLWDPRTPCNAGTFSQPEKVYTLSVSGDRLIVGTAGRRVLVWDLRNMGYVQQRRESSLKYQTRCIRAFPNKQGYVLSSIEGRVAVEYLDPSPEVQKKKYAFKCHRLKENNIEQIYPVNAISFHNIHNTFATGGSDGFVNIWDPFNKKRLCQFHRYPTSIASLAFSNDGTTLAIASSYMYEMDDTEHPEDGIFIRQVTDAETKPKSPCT
UniProt Q07021, residues 74-282: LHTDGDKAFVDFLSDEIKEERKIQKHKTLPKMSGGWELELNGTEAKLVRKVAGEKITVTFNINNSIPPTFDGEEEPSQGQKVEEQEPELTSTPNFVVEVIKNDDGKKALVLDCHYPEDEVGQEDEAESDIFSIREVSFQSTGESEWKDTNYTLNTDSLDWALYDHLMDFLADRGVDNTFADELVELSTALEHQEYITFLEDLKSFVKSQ
UniProt P22314: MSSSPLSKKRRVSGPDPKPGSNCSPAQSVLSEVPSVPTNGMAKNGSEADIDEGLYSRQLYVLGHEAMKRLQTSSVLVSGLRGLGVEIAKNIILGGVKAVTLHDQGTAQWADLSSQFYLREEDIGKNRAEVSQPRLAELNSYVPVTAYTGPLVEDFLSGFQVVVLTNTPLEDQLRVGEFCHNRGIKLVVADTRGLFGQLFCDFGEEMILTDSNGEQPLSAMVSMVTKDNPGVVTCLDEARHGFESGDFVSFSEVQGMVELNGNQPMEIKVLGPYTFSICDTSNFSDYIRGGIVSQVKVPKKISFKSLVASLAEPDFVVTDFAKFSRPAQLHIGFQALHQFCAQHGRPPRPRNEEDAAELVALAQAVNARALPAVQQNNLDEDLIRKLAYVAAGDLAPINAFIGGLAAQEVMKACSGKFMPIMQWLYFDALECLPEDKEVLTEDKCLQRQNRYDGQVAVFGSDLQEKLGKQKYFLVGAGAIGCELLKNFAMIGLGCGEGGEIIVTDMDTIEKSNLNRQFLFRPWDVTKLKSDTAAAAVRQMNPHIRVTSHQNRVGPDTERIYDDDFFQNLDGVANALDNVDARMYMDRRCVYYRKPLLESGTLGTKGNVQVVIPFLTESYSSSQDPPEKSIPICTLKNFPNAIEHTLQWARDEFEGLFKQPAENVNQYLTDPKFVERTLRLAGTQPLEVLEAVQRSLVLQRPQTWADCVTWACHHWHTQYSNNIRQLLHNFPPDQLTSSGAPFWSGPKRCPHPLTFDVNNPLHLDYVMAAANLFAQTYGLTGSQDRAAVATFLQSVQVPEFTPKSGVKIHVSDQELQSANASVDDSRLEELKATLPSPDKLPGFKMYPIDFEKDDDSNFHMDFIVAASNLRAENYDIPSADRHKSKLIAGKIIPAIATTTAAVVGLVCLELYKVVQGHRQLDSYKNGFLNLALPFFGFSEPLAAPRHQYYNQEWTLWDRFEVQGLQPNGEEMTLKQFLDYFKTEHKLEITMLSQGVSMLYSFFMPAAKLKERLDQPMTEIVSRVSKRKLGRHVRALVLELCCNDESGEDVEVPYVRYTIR

Where two headings read alike, the source gives them in different places. No constants are given. Whether binding was seen depends on the method and setting. In cells and extracts the contact can be indirect. Some binding calls cover weakened binding; strength is not graded here. For part of these data: Tags and fused reporters may be left off the sequences shown.

The target in assay [1] is T1, endogenous RECQ4 (human (endogenous in HEK293)) (UniProt O94761).
T1 sequence: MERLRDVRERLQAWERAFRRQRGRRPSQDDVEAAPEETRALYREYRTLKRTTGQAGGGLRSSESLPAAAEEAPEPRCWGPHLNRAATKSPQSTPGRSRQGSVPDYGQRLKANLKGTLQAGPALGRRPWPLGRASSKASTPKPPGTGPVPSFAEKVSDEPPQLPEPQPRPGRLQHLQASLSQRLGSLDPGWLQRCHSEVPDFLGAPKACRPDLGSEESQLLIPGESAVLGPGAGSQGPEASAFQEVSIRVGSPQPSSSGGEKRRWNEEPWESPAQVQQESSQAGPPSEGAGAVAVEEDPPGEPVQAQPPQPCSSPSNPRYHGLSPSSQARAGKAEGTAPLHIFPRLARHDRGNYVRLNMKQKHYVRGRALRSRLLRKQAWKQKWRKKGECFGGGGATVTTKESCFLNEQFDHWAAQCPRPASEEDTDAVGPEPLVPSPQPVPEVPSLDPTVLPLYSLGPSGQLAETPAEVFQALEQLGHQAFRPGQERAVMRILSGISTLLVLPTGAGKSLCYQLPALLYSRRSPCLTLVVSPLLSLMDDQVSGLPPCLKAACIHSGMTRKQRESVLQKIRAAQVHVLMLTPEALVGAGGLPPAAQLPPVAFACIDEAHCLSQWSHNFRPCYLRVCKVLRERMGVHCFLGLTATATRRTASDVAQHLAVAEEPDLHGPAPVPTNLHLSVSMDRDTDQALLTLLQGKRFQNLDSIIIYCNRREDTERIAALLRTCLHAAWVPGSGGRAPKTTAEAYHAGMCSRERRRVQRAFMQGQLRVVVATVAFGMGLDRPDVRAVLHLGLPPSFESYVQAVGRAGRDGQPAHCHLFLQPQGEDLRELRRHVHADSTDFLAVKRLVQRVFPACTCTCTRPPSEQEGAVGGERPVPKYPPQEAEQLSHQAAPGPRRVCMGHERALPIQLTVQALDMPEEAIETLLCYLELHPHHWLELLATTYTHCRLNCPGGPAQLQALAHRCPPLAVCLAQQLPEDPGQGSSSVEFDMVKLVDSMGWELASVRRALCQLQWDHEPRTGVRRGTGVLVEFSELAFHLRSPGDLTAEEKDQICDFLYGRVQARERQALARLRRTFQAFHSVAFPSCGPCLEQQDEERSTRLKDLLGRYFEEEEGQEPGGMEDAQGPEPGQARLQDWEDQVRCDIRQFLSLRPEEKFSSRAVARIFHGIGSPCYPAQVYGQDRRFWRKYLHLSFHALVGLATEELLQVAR
Nature of the assay: co-IP; endogenous RECQ4 immunopurified with rabbit anti-RECQ4 antibody on protein A agarose from whole-cell extracts of parental HEK293 cells at time points after release from nocodazole; western blot (Fig. 3b). Background: A western blot detects proteins with antibodies after separation by electrophoresis.

Assay [2] deals with T2, FLAG-tagged RECQ4 wild type (human) (UniProt O94761).
T2 sequence: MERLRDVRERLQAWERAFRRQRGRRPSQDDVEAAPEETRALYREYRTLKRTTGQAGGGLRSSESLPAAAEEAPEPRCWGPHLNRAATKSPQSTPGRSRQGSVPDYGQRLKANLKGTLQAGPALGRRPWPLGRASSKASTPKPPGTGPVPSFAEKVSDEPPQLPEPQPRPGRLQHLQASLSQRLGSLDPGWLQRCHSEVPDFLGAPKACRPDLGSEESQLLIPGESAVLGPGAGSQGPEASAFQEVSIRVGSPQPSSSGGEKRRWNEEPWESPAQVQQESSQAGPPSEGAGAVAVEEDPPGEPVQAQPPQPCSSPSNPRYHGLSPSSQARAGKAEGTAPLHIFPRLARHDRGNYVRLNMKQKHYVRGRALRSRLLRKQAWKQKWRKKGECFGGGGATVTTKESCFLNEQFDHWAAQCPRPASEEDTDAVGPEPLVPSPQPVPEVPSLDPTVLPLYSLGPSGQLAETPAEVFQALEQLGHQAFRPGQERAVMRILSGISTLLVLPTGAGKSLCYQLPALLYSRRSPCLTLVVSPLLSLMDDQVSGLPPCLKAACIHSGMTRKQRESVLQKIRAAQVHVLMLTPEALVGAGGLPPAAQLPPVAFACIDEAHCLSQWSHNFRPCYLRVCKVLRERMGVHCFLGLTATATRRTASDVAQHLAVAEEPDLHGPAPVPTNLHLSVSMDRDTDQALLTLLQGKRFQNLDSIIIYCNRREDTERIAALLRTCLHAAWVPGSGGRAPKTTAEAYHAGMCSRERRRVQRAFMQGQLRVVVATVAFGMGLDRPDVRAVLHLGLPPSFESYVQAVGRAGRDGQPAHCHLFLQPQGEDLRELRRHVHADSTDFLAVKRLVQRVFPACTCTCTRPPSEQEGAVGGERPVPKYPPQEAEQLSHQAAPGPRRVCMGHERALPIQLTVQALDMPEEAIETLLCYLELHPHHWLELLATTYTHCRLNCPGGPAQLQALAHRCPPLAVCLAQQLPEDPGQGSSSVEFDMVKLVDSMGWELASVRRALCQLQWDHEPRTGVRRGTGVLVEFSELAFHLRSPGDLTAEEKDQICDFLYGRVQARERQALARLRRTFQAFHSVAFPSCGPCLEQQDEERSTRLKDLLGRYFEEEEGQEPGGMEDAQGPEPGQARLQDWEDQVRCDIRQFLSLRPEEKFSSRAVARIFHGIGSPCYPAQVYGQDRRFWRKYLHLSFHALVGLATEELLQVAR
In words: co-IP; FLAG-RECQ4 proteins on anti-FLAG M2 agarose from cytoplasmic (CE) fractions of stable RECQ4 KD HEK293 cells; western blot (Fig. 2d left).

Assay [3] has as its target T2, FLAG-tagged RECQ4 wild type (human). In words: co-IP; FLAG-RECQ4 proteins on anti-FLAG M2 agarose from chromatin-bound (CB) fractions of stable RECQ4 KD HEK293 cells; western blot (Fig. 2d right, Fig. 7g).
The target of assay [4] is T3, FLAG-tagged RECQ4 Q757X mutant (human) (UniProt O94761).
T3 sequence: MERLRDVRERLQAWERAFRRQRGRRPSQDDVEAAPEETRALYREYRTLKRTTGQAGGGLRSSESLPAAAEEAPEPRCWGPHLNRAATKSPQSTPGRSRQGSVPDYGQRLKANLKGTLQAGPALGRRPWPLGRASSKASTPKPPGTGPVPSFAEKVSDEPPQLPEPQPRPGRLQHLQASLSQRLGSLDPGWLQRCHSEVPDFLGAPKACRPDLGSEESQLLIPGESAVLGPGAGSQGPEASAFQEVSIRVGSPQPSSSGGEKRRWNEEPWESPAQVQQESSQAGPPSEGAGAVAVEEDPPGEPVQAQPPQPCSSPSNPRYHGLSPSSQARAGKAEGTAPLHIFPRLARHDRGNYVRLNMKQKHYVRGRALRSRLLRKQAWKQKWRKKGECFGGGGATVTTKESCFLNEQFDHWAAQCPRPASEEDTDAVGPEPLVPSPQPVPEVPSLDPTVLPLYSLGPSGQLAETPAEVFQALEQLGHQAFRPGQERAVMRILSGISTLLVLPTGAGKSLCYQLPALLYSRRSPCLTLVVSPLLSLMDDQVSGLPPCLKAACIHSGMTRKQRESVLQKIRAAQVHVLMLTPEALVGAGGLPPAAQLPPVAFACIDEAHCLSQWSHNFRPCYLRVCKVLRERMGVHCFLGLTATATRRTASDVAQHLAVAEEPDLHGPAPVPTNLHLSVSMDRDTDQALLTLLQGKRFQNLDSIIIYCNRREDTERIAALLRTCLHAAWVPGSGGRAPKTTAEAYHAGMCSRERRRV
The assay is described as above.

For assay [5], the target named is T4, FLAG-tagged RECQ4 D1093X mutant (human) (UniProt O94761).
T4 sequence: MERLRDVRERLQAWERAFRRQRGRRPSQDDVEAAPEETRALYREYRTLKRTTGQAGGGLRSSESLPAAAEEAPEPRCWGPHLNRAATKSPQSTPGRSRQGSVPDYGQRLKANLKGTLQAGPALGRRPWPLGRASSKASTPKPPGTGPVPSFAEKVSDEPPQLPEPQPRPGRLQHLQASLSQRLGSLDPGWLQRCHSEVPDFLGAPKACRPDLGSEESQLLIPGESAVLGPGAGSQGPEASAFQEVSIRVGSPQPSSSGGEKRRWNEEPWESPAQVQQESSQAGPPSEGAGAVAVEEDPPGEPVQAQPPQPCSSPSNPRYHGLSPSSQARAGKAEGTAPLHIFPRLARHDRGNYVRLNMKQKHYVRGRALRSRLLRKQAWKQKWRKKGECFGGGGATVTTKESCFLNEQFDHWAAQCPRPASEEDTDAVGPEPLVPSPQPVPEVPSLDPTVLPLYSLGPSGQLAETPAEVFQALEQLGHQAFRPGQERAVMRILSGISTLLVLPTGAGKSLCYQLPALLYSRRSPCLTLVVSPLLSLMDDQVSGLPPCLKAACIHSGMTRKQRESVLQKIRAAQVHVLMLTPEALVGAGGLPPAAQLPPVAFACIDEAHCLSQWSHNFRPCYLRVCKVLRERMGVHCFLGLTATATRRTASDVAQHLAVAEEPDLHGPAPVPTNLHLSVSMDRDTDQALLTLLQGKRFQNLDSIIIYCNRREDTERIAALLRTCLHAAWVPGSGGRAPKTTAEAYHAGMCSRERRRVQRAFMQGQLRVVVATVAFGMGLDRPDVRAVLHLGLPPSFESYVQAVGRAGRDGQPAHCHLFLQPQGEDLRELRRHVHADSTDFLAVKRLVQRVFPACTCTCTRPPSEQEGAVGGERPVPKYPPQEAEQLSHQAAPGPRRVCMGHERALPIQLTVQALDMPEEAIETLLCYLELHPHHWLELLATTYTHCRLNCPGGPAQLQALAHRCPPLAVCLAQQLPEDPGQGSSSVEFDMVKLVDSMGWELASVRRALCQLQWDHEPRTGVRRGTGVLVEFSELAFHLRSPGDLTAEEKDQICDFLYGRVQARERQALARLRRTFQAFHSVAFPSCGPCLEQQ
The assay is described as above.

For assay [6], the target named is T5, FLAG-RECQ4(751-1208) (human) (UniProt O94761).
T5 sequence: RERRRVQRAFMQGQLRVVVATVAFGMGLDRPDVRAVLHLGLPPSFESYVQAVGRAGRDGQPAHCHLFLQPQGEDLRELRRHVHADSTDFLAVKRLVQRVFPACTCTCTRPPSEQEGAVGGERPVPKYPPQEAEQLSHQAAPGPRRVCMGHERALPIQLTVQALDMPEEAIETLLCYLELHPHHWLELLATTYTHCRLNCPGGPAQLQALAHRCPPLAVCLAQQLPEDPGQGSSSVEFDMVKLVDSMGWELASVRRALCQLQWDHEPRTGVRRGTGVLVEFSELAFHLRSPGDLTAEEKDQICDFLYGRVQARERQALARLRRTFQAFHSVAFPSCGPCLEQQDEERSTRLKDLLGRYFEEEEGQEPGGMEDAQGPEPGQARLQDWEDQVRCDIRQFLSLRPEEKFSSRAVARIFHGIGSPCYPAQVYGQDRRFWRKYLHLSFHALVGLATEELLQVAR
In words: co-IP; FLAG-RECQ4 proteins on M2 agarose from stable RECQ4 KD HEK293 cells, extract or fraction not named; cells with or without APC5 shRNA (Fig. 3g); WT, Q757X and 751-1208 (Fig. 7e); western blot.

Assay [7] addresses T2, FLAG-tagged RECQ4 wild type (human). Nature of the assay: co-IP; FLAG-RECQ4 WT or Q757X on M2 agarose from whole-cell extracts of stable RECQ4 KD HEK293 cells at time points after release from nocodazole; western blot (Fig. 3e).
Assay [8] has the same target. Nature of the assay: co-IP; FLAG-RECQ4 proteins on M2 agarose from stable RECQ4 KD HEK293 cells, extract or fraction not named; cells with or without APC5 shRNA (Fig. 3g); WT, Q757X and 751-1208 (Fig. 7e); western blot.
The target in assay [9] is T3, FLAG-tagged RECQ4 Q757X mutant (human). The assay is described as above.
Assay [10] has as its target T5, FLAG-RECQ4(751-1208) (human). The assay is described as above. The source holds these as a separate data set.

Regarding APC11 (from UniProt Q9NYG5 1-84), in assay [1], the binding result is “binds”.
Turning to “ATP citrate lyase (ACLY) (from UniProt P53396 1-1101) (enzyme)”, the binding result in assay [2] is “binds”.
Take GINS4 (from UniProt Q9BRT9 1-223): the binding entry in [3], in assay [4] and in assay [5] was “binds” each time.
As for “mitotic checkpoint protein BUB3 (from UniProt O43684 1-328)”, the binding entry in assay [1], in assay [6], in assay [3], in assay [5] and in assay [7] was “binds” each time.
p32 (from UniProt Q07021 74-282): the binding result in assay [8] and in assay [9] was “binds” each time.
For “ubiquitin-activating enzyme E1 homolog A (UBA1) (from UniProt P22314 1-1058)”, the binding result in [2] is listed as “binds”.

B1: GINS2 (protein, UniProt Q9Y248 1-185)
chain: MDAAEVEFLAEKELVTIIPNFSLDKIYLIGGDLGPFNPGLPVEVPLWLAINLKQRQKCRLLPPEWMDVEKLEKMRDHERKEETFTPMPSPYYMELTKLLLNHASDNIPKADEIRTLVKDMWDTRIAKLRVSADSFVRQQEAHAKLDNLTLMEINTSGTFLTQALNHMYKLRTNLQPLESTQSQDF
As to B1, the binding result in [1], in assay [3], in assay [4] and in [5] was “binds” in each case.

B2: EMI1 (protein, UniProt Q9UKT4 1-447)
chain: MSRRPCSCALRPPRCSCSASPSAVTAAGRPRPSDSCKEESSTLSVKMKCDFNCNHVHSGLKLVKPDDIGRLVSYTPAYLEGSCKDCIKDYERLSCIGSPIVSPRIVQLETESKRLHNKENQHVQQTLNSTNEIEALETSRLYEDSGYSSFSLQSGLSEHEEGSLLEENFGDSLQSCLLQIQSPDQYPNKNLLPVLHFEKVVCSTLKKNAKRNPKVDREMLKEIIARGNFRLQNIIGRKMGLECVDILSELFRRGLRHVLATILAQLSDMDLINVSKVSTTWKKILEDDKGAFQLYSKAIQRVTENNNKFSPHASTREYVMFRTPLASVQKSAAQTSLKKDAQTKLSNQGDQKGSTYSRHNEFSEVAKTLKKNESLKACIRCNSPAKYDCYLQRATCKREGCGFDYCTKCLCNYHTTKDCSDGKLLKASCKIGPLPGTKKSKKNLRRL
Consider B2, for which the binding entry in assay [10], in assay [3], in [5] and in [7] was “binds” throughout.
